Test results: PMC6307885
These are yes or no findings as the source states them, for the method shown. For some of these results: Binding seen in cells or lysates may run through a third protein. Some binding calls cover weakened binding; strength is not graded here. Tags and fused reporters may be left off the sequences shown.

The chains behind the UniProt entries cited, without tags or fusion partners.
UniProt Q9SAD4: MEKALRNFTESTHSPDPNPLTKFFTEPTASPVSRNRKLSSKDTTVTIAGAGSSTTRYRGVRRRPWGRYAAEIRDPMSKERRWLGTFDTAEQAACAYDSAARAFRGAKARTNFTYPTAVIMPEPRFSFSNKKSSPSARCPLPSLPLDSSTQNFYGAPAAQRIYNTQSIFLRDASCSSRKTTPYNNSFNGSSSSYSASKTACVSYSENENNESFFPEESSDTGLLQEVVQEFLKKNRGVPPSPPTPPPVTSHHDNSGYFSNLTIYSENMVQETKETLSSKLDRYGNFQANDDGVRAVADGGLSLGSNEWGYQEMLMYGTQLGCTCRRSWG

B1: REV-MYC (REVOLUTA with MYC tag, from p35S::REV-MYC plants) (protein, UniProt Q9SE43 1-842)
chain: MEMAVANHRERSSDSMNRHLDSSGKYVRYTAEQVEALERVYAECPKPSSLRRQQLIRECSILANIEPKQIKVWFQNRRCRDKQRKEASRLQSVNRKLSAMNKLLMEENDRLQKQVSQLVCENGYMKQQLTTVVNDPSCESVVTTPQHSLRDANSPAGLLSIAEETLAEFLSKATGTAVDWVQMPGMKPGPDSVGIFAISQRCNGVAARACGLVSLEPMKIAEILKDRPSWFRDCRSLEVFTMFPAGNGGTIELVYMQTYAPTTLAPARDFWTLRYTTSLDNGSFVVCERSLSGSGAGPNAASASQFVRAEMLSSGYLIRPCDGGGSIIHIVDHLNLEAWSVPDVLRPLYESSKVVAQKMTISALRYIRQLAQESNGEVVYGLGRQPAVLRTFSQRLSRGFNDAVNGFGDDGWSTMHCDGAEDIIVAINSTKHLNNISNSLSFLGGVLCAKASMLLQNVPPAVLIRFLREHRSEWADFNVDAYSAATLKAGSFAYPGMRPTRFTGSQIIMPLGHTIEHEEMLEVVRLEGHSLAQEDAFMSRDVHLLQICTGIDENAVGACSELIFAPINEMFPDDAPLVPSGFRVIPVDAKTGDVQDLLTANHRTLDLTSSLEVGPSPENASGNSFSSSSSRCILTIAFQFPFENNLQENVAGMACQYVRSVISSVQRVAMAISPSGISPSLGSKLSPGSPEAVTLAQWISQSYSHHLGSELLTIDSLGSDDSVLKLLWDHQDAILCCSLKPQPVFMFANQAGLDMLETTLVALQDITLEKIFDESGRKAICSDFAKLMQQGFACLPSGICVSTMGRHVSYEQAVAWKVFAASEENNNNLHCLAFSFVNWSFV
B2: AD-ZPR3 (LITTLE ZIPPER3 fused to the activation domain of GAL4) (protein, UniProt Q9LXI8 1-67)
chain: MERLNSKLFVENCYIMKENERLRKKAELLNQENQQLLFQLKQKLSKTKNSNNGSNNDNKSSSASGQS
B3: ZPR3 expressed as the inducible third protein in the yeast three-hybrid assay (protein, UniProt Q9LXI8 1-67)
chain: B2 chain

How the values were obtained:
[1] = molecular target: DRN-GFP (DORNRÖSCHEN fused to GFP, from pDRN::DRN-GFP plants) (Arabidopsis thaliana) (UniProt Q9SAD4); assay: co-IP; anti-GFP on Protein A sepharose beads, blot probed with anti-MYC; extracts of young (younger than P10) and mature (older than P10) leaf axil-enriched tissues of pDRN::DRN-GFP p35S::REV-MYC plants, equal amounts of DRN-GFP; 20 mM HEPES pH 7.5, 40 mM KCl, 1 mM EDTA, 1% Triton X-100
[2] = molecular target: BD-REV (full-length REV fused to the binding domain of GAL4) (Arabidopsis thaliana) (UniProt Q9SE43); assay: two-hybrid; GAL4 AD and BD fusions in yeast; growth on SD-Leu-Trp-His-Ade plates; 100 mM 3-AT in the selection medium
[3] = molecular target: BD-REV (full-length REV fused to the binding domain of GAL4) (Arabidopsis thaliana) (UniProt Q9SE43); assay: yeast three-hybrid; yeast AH109; AD and BD fusions with conditional expression of a third (bridge) protein; growth and relative β-galactosidase activity before and after induction; 30°C

Binder	binding [1]	binding [2]	binding [3]
B1	binds	–	–
B2	–	binds	binds
B3	–	–	binds
